The values below come from PMC6831302.

The chains behind the UniProt entries cited, without tags or fusion partners.
UniProt P49841: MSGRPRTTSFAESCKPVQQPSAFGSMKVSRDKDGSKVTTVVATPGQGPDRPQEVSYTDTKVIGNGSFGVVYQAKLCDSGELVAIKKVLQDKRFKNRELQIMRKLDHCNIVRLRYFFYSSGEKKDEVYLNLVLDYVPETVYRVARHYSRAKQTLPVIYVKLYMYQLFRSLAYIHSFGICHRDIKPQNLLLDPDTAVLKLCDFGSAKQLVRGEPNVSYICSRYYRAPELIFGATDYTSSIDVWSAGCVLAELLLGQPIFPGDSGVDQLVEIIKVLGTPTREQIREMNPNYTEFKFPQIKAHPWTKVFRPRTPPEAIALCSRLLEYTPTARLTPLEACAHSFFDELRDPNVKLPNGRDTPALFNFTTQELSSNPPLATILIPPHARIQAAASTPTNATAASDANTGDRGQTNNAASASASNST
UniProt P07355: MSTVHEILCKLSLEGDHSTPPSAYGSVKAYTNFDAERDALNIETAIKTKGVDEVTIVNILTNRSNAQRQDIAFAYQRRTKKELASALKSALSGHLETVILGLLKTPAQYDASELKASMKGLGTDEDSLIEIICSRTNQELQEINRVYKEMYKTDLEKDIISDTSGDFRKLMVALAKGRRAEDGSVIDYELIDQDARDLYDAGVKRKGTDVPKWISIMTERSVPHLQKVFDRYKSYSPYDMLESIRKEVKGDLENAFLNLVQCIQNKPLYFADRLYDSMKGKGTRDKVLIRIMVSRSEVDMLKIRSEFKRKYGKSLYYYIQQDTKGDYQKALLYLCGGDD

These are yes or no findings as the source states them, for the method shown. Binding seen in cells or lysates may run through a third protein. Some entries that bind do so weakly or less than the wild type.

For the experiment, the target named is glycogen synthase kinase 3β (human (endogenous in MCF-7 and MDA-MB-231)) (UniProt P49841). The experiment in a line: co-IP; LncCCAT1-overexpressing MCF-7 cells and LncCCAT1-knockdown MDA-MB-231 cells; which protein was precipitated is not told in the text shown.

For the substance Annexin A2 (from UniProt P07355 1-339), the binding result was “binds”.
